Results as given in article PMC11210774, “Critical domains for NACC2-NTRK2 fusion protein activation” (PLOS ONE, 2024).
Results are given in words; binding and its absence hold for the method and conditions named.

Molecular target: Nucleus Accumbens-associated protein 2 (NACC2), wild type (human) (UniProt Q96BF6)
Assay: condition: only with sample buffer containing β-mercaptoethanol; reducing SDS-PAGE and immunoblot of multimers; same HEK293T lysates in E1A buffer as in the non-reducing assay, prepared in reducing sample buffer (10% β-mercaptoethanol, 2% SDS); immunoblot for NACC2

B1: Nucleus Accumbens-associated protein 2 (NACC2), wild type (natural protein, human, UniProt Q96BF6 1-587, looked up)
chain: MSQMLHIEIPNFGNTVLGCLNEQRLLGLYCDVSIVVKGQAFKAHRAVLAASSLYFRDLFSGNSKSAFELPGSVPPACFQQILSFCYTGRLTMTASEQLVVMYTAGFLQIQHIVERGTDLMFKVSSPHCDSQTAVIEDAGSEPQSPCNQLQPAAAAAAPYVVSPSVPIPLLTRVKHEAMELPPAGPGLAPKRPLETGPRDGVAVAAGAAVAAGTAPLKLPRVSYYGVPSLATLIPGIQQMPYPQGERTSPGASSLPTTDSPTSYHNEEDEEDDEAYDTMVEEQYGQMYIKASGSYAVQEKPEPVPLESRSCVLIRRDLVALPASLISQIGYRCHPKLYSEGDPGEKLELVAGSGVYITRGQLMNCHLCAGVKHKVLLRRLLATFFDRNTLANSCGTGIRSSTSDPSRKPLDSRVLNAVKLYCQNFAPSFKESEMNVIAADMCTNARRVRKRWLPKIKSMLPEGVEMYRTVMGSAAASVPLDPEFPPAAAQVFEQRIYAERRGDAATIVALRTDAVNVDLSAAANPAFDAGEEVDGAGSVIQEVAAPEPLPADGQSPPQPFEQGGGGPSRPQTPAAAARRPEGTYAGTL
notes: NACC2, human, wild type; gene bought from Origene and subcloned into pCDNA3 by EcoRI and XbaI; Expressed alone (multimerization assay) or together with the fusion proteins (co-IP); also called wild-type NACC2; native NACC2; source: HEK293T, transfected (pCDNA3, CaCl2), in lysate (E1A buffer)
  binding: no binding
